# Measured values reported in PMC9857746.
# Sequences of proteins named here, by UniProt entry; tags and fusion partners are left off.
# UniProt P49736: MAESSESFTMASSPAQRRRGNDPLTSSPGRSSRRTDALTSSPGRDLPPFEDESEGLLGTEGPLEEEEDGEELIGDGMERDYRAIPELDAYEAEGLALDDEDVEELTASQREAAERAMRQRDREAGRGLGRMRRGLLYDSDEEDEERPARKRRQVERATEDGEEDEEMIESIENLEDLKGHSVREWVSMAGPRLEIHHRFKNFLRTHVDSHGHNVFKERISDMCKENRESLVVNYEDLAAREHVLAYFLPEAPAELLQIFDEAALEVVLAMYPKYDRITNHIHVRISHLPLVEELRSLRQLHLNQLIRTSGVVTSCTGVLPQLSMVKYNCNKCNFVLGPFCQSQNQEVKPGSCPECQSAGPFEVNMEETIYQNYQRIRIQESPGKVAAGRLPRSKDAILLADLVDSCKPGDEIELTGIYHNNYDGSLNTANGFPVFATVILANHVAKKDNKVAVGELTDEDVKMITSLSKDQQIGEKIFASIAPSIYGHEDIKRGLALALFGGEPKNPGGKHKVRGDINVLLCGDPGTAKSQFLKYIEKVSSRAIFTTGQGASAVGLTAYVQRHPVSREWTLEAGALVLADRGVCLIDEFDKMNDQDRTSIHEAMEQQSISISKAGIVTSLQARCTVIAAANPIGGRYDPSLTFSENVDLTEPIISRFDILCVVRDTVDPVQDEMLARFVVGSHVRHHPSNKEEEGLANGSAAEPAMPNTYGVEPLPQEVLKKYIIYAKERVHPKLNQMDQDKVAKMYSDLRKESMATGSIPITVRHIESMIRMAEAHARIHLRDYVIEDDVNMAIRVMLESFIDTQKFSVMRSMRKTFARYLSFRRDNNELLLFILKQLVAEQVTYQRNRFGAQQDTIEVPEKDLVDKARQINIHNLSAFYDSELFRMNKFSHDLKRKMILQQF
# UniProt P00722: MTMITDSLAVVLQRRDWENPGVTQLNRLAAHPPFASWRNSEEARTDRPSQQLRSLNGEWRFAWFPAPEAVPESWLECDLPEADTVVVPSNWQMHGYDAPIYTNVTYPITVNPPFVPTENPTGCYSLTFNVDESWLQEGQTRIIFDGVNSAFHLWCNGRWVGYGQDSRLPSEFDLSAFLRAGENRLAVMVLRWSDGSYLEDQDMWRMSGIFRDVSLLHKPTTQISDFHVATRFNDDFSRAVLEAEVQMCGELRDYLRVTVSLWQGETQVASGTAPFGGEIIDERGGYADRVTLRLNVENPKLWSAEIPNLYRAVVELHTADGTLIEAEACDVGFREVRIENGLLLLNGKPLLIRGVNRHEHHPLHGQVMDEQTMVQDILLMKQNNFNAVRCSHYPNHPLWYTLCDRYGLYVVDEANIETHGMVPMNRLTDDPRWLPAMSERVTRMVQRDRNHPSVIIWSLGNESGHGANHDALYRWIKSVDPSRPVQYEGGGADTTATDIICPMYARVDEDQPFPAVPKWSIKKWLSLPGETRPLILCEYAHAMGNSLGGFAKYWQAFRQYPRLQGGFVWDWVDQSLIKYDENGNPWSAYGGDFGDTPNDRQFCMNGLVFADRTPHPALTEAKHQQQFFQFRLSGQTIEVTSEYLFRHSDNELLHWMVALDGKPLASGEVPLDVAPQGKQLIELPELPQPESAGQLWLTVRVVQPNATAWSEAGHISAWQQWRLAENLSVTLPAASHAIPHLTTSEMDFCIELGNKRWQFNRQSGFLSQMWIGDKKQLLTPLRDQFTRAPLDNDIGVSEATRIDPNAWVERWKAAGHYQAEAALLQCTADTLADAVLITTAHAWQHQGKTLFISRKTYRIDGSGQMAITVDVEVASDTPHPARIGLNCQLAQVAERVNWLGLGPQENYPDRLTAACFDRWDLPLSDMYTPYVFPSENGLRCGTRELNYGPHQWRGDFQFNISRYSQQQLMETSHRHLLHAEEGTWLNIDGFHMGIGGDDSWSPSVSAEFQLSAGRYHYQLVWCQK
# These are yes or no findings as the source states them, for the method shown. In cells and extracts the contact can be indirect.
# How the values were obtained:
# [1] = molecular target: Halo-tagged human MCM2 (HaloMCM2) (human) (UniProt P49736); test: pull-down
# [2] = molecular target: HisLacZ (His-tagged LacZ control protein), stably expressed in HepG2 cells [β-galactosidase: P00722]; test: pull-down
Substance,binding [1],binding [2]
"HisLacZ (His-tagged LacZ control protein), stably expressed in HepG2 cells (from UniProt P00722 1-1024)",no binding,–
endogenous MCM2 (minichromosome maintenance protein 2) (from UniProt P49736 1-904),–,no binding
